Experimental data reported in PubChem BioAssay AID504444 (National Center for Advancing Translational Sciences (NCATS), 2011).
Out of some 360,000 compounds screened, about 7,500 (2.1%) were called active. The inconclusive results got no clear call from the source; some entries with a clear call stand among them for comparison. Calls follow the shape of the dose curve; as a rule, active = well fitted inhibition curve with a large enough effect; inconclusive = small, poorly fitted or top-dose-only effect, or effect the other way; inactive = flat fitted curve, though single readings scatter. A potency beside an inconclusive call is a rough fit, not a confirmed value.

Experiment: Nrf2 qHTS screen for inhibitors; also: nearly all actives have a fitted effect of over 60% in size
Conditions: A549 ARE-Fluc reporter, luciferase luminescence, 18-24 h; series mostly up to 46 µM
Procedure, shortened: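 A549 ARE_Fluc cells (5000/well, 5% FBS OPTI-MEM) pre-incubated 2 h, then treated with compounds 18-24 h at 37C/5% CO2 in concentration-response. CellTiter-Fluor viability read first; BugLite luciferase luminescence after 15 min at room temperature gives Nrf2 activity.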
Potency is read from the fitted curve at half-maximal effect.

Row | SMILES | Potency
1 | CCOC(=O)c1ccc(N2C(=O)C=CC2=O)cc1 | inconclusive: 29.1 µM [falling, single point]
2 | CCc1nnc(NC(=O)NC(C)(C)C)s1 | inconclusive: 14.6 µM [activator, partial curve, poor fit]
3 | CC(=O)c1cccc(NC(=S)NC(=O)CC(C)(C)C)c1 | inconclusive: 29.1 µM [activator, single point]
4 | O=C(O)CSc1nnc(-c2ccccc2O)n1Cc1ccccc1 | inconclusive: 7.31 µM [activator, single point]
5 | CCOc1ccc(CCNC(=O)c2cc3c(=O)oc4ccc(C)cc4c3s2)cc1OCC | inactive
6 | O=C(NNC(=O)C1CC=CCC1)c1ccccc1Br (stereo unspecified) | inconclusive: 29.1 µM [activator, single point]
7 | CCC1=C(c2ccc(C)cc2)S(=O)(=O)N=C1N1CCC(C(=O)Nc2ccccc2F)CC1 | inactive
8 | CC(C)COn1c(=S)[nH]c2ccccc2c1=O | inactive
9 | COC(=O)c1c(SCC(=O)Nc2cc(OC)cc(OC)c2)[nH]c2ccc(C)cc2c1=O | inconclusive: 32.6 µM [falling, single point]
10 | CSCCC(NC(=O)c1ccc(Cl)cc1)C(=O)OCC(C)=O (stereo unspecified) | inconclusive: 18.4 µM [activator, single point]
11 | Cc1ccccc1CN1CCN(C(=O)c2ccc(S(=O)(=O)NCc3ccco3)cc2)CC1 | inconclusive: 20.6 µM [falling, single point]
12 | COc1ccc(CNC(=O)c2cc(C3CC3)nc3c2cnn3C(C)C)cc1 | inconclusive: 32.6 µM [falling, partial curve, poor fit]
13 | Cc1nc(NC(=O)CCc2ccccc2)sc1C | inconclusive: 29.1 µM [activator, single point]
14 | CC(=O)c1ccc(OCc2cc(C(=O)N3CC4C[C@@H]5CC3C[C@H](C4)C5)no2)cc1 | inconclusive: 3.66 µM [activator, single point]
15 | COc1ccc(C(=O)NCCn2cc(SCC(=O)NCC3CCCO3)c3ccccc32)cc1OC (stereo unspecified) | inconclusive: 18.4 µM [falling, single point]
16 | O=C(Nc1ccccc1N1CCCCC1)c1ccc(Cl)cc1 | inconclusive: 23.1 µM [activator, single point]
17 | O=C(O)c1c(NC(=O)N2CCCC2)sc2c1CCCC2 | inconclusive: 16.4 µM [falling, single point]
18 | CCOC(=O)C1Nc2c(F)cc(C)cc2C2c3ccccc3CC12 (stereo unspecified) | inactive
19 | CC(C)Cn1c(/C=N/Nc2nc3ccccc3[nH]2)nc2ccccc21 | active: 7.31 µM
20 | COc1cc(NC(=O)CCn2c(=O)[nH]c3ccsc3c2=O)cc(OC)c1 | inconclusive: 29.1 µM [falling, single point]
21 | CCN(C(=O)c1nn(-c2ccc(OC)c(Cl)c2)c(=O)c2c1c1ccccc1n2C)c1cccc(C(F)(F)F)c1 | inactive
22 | CC(=O)N(Cc1c(C)nn(-c2ccccc2)c1Cl)c1ccc(Cl)cc1 | inactive

Row | SMILES | Potency
23 | COc1ccc(-c2nc3ccc(NS(=O)(=O)c4ccc(C)cc4)cc3o2)cc1 | inactive
24 | CC(C)N(C(=O)CSc1ccc(S(=O)(=O)N2CCCCC2)cn1)c1ccccc1 | active: 9.2 µM
25 | COc1ccc(N=C2C(=S)N(c3ccc(OC)cc3)C(=NS(=O)(=O)c3ccccc3)N2c2ccccc2)cc1 | inconclusive: 23.1 µM [activator, partial curve]
26 | Cn1nc(-c2ccccc2)cc1NC(=O)Nc1ccc(F)cc1 | inconclusive: 5.8 µM [activator, partial curve]
27 | CC(=O)N1CCN(c2ccc(NCc3ccc(C(C)C)cc3)cc2)CC1 | inconclusive: 29.1 µM [falling, single point]
28 | CC(C)(c1ccccc1)c1ccc(OCCn2cnc3ccccc3c2=O)cc1 | inconclusive: 0.0259 µM [falling, full curve, poor fit]
29 | O=[N+]([O-])c1cccc(C2(O)COc3ccccc3O2)c1 (stereo unspecified) | inconclusive: 2.06 µM [activator, partial curve, poor fit]
30 | Cc1occc1C(=O)NNC(=O)Nc1ccc(Cl)c(Cl)c1 | inconclusive: 25.9 µM [activator, partial curve, poor fit]
31 | CCC(C)(C)n1nnnc1CN1CCN(c2nc3ccc(C)cc3cc2C#N)CC1 | inconclusive: 29.1 µM [falling, single point]
32 | CCCc1cc(=O)[nH]c(SCC(=O)NCc2ccc3c(c2)OCO3)n1 | inconclusive: 11.6 µM [falling, partial curve, poor fit]
33 | Cc1ccc(-c2cn3c(n2)SCC3)cc1 | inconclusive: 9.2 µM [activator, partial curve]
34 | Oc1ccc(-c2n[nH]c(=S)n2-c2ccc3c(c2)OCCO3)c(O)c1 | inactive
35 | O=C(O)C(F)=C1c2ccccc2-c2ccccc21 | inconclusive: 32.6 µM [falling, partial curve, poor fit]
36 | Cc1[nH][nH]c(=O)c1C(c1c(C)[nH][nH]c1=O)c1cn(Cc2ccc(F)cc2)c2ccccc12 | inactive
37 | Cc1cccn2c(=O)c(C(=O)NCc3ccc(F)cc3)c(O)nc12 | inconclusive: 1.84 µM [falling, single point]
38 | O=C(CCCN1C(=O)/C(=C/c2cccs2)SC1=S)Nc1ccc(O)cc1 | inconclusive: 18.4 µM [activator, partial curve]
39 | CC1CCCN(C(=O)c2ccc(S(=O)(=O)N3CCC(c4nc5ccccc5s4)CC3)cc2)C1 (stereo unspecified) | inconclusive: 0.731 µM [falling, full curve, poor fit]
40 | Cc1cc(N/N=C/c2ccc(F)cc2)nc(-n2nc(C)cc2C)n1 | inconclusive: 29.1 µM [falling, single point]
41 | Cc1cc(C)c(C(=O)CN2C(=O)NC3(CCCCCC3)C2=O)cc1C | inconclusive: 14.6 µM [activator, partial curve]
42 | Cc1ccc(CNC(=O)/C=C/c2ccccc2Cl)cc1 | inconclusive: 3.26 µM [activator, full curve]
43 | O=C(OC1CCCCC1=O)c1cccc(S(=O)(=O)N2CCOCC2)c1 (stereo unspecified) | inactive
44 | O=C(CN1CCN(S(=O)(=O)N2CCCCC2)CC1)Nc1ccc(Cl)c(Cl)c1 | inconclusive: 16.4 µM [falling, single point]

As entered above:
In Potency, `COc1ccc(-c2nc3ccc(NS(=O)(=O)c4ccc(C)cc4)cc3o2)cc1` has the entry inactive
In Potency, `Cc1[nH][nH]c(=O)c1C(c1c(C)[nH][nH]c1=O)c1cn(Cc2ccc(F)cc2)c2ccccc12` has the entry inactive
In Potency, `CC(=O)N1CCN(c2ccc(NCc3ccc(C(C)C)cc3)cc2)CC1` has the entry inconclusive: 29.1 µM [falling, single point]
In Potency, `Cc1cccn2c(=O)c(C(=O)NCc3ccc(F)cc3)c(O)nc12` has the entry inconclusive: 1.84 µM [falling, single point]

(further entries)

Row | SMILES | Potency
45 | Cc1ccc(CSc2nc3ccccc3c(=O)n2C)cc1 | inconclusive: 20.6 µM [falling, single point]
46 | CCc1ccc(CN(C)C(=O)c2cccc(S(=O)(=O)Nc3ccccc3OC)c2)cc1 | inconclusive: 18.4 µM [falling, partial curve, poor fit]
47 | Cc1ccccc1NC(=O)Nc1ccccn1 | inconclusive: 20.6 µM [activator, partial curve]
48 | Cc1nc(CN(C)C(=O)c2cc(COc3ccc4ncccc4c3)on2)cs1 | active: 2.91 µM
49 | O=C(CSc1nnc(SCc2ccccc2Cl)s1)N/N=C/c1c[nH]c2ccccc12 | inconclusive: 20.6 µM [falling, partial curve, poor fit]
50 | O=C(Nc1cccc(S(=O)(=O)Nc2ccc(SC(F)F)cc2)c1)C1CCC1 | inconclusive: 20.6 µM [falling, single point]
51 | COc1ccc(CNC(=O)CCCN2C(=O)CSc3c2c(C)nn3-c2ccccc2)cc1 | inactive
52 | Nc1n[nH]c(C2CCCCC2)n1 | inconclusive: 2.91 µM [falling, partial curve, poor fit]
53 | O=C(Nc1ccc(Br)c2cccnc12)c1ccc(Cn2cc([N+](=O)[O-])cn2)o1 | inconclusive: 18.4 µM [activator, partial curve, poor fit]
54 | CC(C)(C)c1ccc(-c2nnc3sc(-c4ccncc4)nn23)cc1 | inconclusive: 18.4 µM [falling, partial curve, poor fit]
55 | O=S(=O)(c1ccc(-c2csc(-c3cccnc3)n2)cc1)N1CCCCC1 | active: 20.6 µM
56 | CN(C)CCCN(C(=O)c1ccc(S(=O)(=O)N2CCCCCC2)cc1)c1nc2ccc(F)cc2s1 | inconclusive: 5.8 µM [falling, partial curve]
57 | N#Cc1sc2nc(C3CC3)cc(-c3ccc(Cl)cc3)c2c1N | inconclusive: 29.1 µM [falling, single point]
58 | C=CCNCCCCOc1ccc(OCc2ccccc2)cc1 | inconclusive: 11.6 µM [activator, partial curve]
59 | CCn1c(C)c(P(c2ccccc2)c2ccccc2)[n+]2ccccc12 | inconclusive: 16.4 µM [falling, single point]
60 | COc1ccc(CCNc2nc(N3CCCCC3)nc(N3CCCCC3)n2)cc1OC | inconclusive: 29.1 µM [falling, single point]
61 | CCCCOc1c(Cl)cc(C(=O)N2CCN(CC(=O)N3CCCC3)CC2)cc1OCC | inconclusive: 0.058 µM [falling, full curve, poor fit]
62 | COc1cccc(/C=C2\SC(=S)N(C(Cc3ccccc3)C(=O)O)C2=O)c1 (stereo unspecified) | inactive
63 | c1coc(C2=NC(c3ccco3)C(c3ccco3)N2)c1 (stereo unspecified) | inconclusive: 29.1 µM [activator, single point]
64 | CCC(C(=O)Nc1sc(C(N)=O)c(C)c1C(=O)OC)c1ccccc1 (stereo unspecified) | inconclusive: 14.6 µM [falling, partial curve, poor fit]
65 | Cc1ccc2oc3nc(C)c(C(=O)O)cc3c(=O)c2c1 | inconclusive: 3.55 µM [activator, partial curve, poor fit]
66 | C[C@H](CO)N1C[C@H](C)[C@@H](CN(C)S(=O)(=O)c2cccs2)Oc2c(NC(=O)Cc3ccccc3)cccc2C1=O | inconclusive: 16.4 µM [activator, single point]
